Assay: Wet resistance of the printed images (bleeding)
Design: key: ∘: No bleeding; Δ: Slight bleeding; x: Notable bleeding
Conditions: bleeding judged with bare eyes; 50° C., 90% RH, 168 h

Row | Compound | Water resistance of printed images
1 | O=C([O-])CCCS(=O)(=O)c1cc(S(=O)(=O)[O-])c(Nc2cc(S(=O)(=O)[O-])c3[nH]c(=O)c(C(=O)OCc4cccc(Cl)c4)c4c3c2C(=O)c2ccccc2-4)c(S(=O)(=O)[O-])c1.[Na+].[Na+].[Na+].[Na+] [Dp10] | ∘
2 | Cc1ccc(COC(=O)c2c3c4c(c(Nc5cc(S(=O)(=O)CCCC(=O)[O-])ccc5S(=O)(=O)[O-])cc(S(=O)(=O)[O-])c4[nH]c2=O)C(=O)c2ccccc2-3)cc1.[Na+].[Na+].[Na+] [Dm5] | ∘
3 | O=C([O-])CCCS(=O)(=O)c1ccc(S(=O)(=O)[O-])c(Nc2cc(S(=O)(=O)[O-])c3[nH]c(=O)c(C(=O)[O-])c4c3c2C(=O)c2ccccc2-4)c1.[Na+].[Na+].[Na+].[Na+] [Dm1] | ∘
4 | O=S(=O)([O-])c1cc(Nc2nc(Nc3ccc(/C=C/c4ccc(Nc5nc(Nc6cc(S(=O)(=O)[O-])cc7cc(S(=O)(=O)[O-])c(N=Nc8ccccc8)c(O)c67)nc(N6CCOCC6)n5)cc4S(=O)(=O)[O-])c(S(=O)(=O)[O-])c3)nc(N3CCOCC3)n2)c2c(O)c(N=Nc3ccccc3)c(S(=O)(=O)[O-])cc2c1.[Na+].[Na+].[Na+].[Na+].[Na+].[Na+] [C.I. direct red 227, reference compound] | Δ
5 | O=C([O-])CCCS(=O)(=O)c1cc(S(=O)(=O)[O-])c(Nc2cc(S(=O)(=O)[O-])c3[nH]c(=O)c(C(=O)OCc4ccccc4)c4c3c2C(=O)c2ccccc2-4)c(S(=O)(=O)[O-])c1.[Na+].[Na+].[Na+].[Na+] [Dp4] | ∘
6 | O=C([O-])CCCS(=O)(=O)c1cc(S(=O)(=O)[O-])c(Nc2cc(S(=O)(=O)[O-])c3[nH]c(=O)c(C(=O)[O-])c4c3c2C(=O)c2ccccc2-4)c(S(=O)(=O)[O-])c1.[Na+].[Na+].[Na+].[Na+].[Na+] [Dp2] | ∘
7 | O=C([O-])CCCS(=O)(=O)c1ccc(S(=O)(=O)[O-])c(Nc2cc(S(=O)(=O)[O-])c3[nH]c(=O)c(C(=O)OCc4cccc([N+](=O)[O-])c4)c4c3c2C(=O)c2ccccc2-4)c1.[Na+].[Na+].[Na+] [Dm7] | ∘
8 | Cn1c(=O)c(C(=O)OCc2cccc3ccccc23)c2c3c(c(Nc4ccc(S(=O)(=O)[O-])cc4S(=O)(=O)[O-])ccc31)C(=O)c1ccccc1-2.[Na+].[Na+] [Dye2, reference compound] | ∘
9 | O=C([O-])CCCS(=O)(=O)c1cc(S(=O)(=O)[O-])c(Nc2cc(S(=O)(=O)[O-])c3[nH]c(=O)c(C(=O)OCc4cccc5ccccc45)c4c3c2C(=O)c2ccccc2-4)c(S(=O)(=O)[O-])c1.[Na+].[Na+].[Na+].[Na+] [Dp17] | ∘
10 | O=C([O-])CCCS(=O)(=O)c1ccc(S(=O)(=O)[O-])c(Nc2cc(S(=O)(=O)[O-])c3[nH]c(=O)c(C(=O)OCc4ccccc4)c4c3c2C(=O)c2ccccc2-4)c1.[Na+].[Na+].[Na+] [Dm3] | ∘
11 | O=C(Nc1cc(S(=O)(=O)[O-])cc2cc(S(=O)(=O)[O-])c(N=Nc3ccc4cc(S(=O)(=O)CCOS(=O)(=O)[O-])ccc4c3S(=O)(=O)[O-])c(O)c12)c1ccccc1.[Na+].[Na+].[Na+].[Na+] [C.I. reactive red 180, reference compound] | Δ
12 | O=C([O-])CCCS(=O)(=O)c1cc(S(=O)(=O)[O-])c(Nc2cc(S(=O)(=O)[O-])c3[nH]c(=O)c(C(=O)OCc4cccc(S(=O)(=O)[O-])c4)c4c3c2C(=O)c2ccccc2-4)c(S(=O)(=O)[O-])c1.[Na+].[Na+].[Na+].[Na+].[Na+] [Dp14] | Δ
